Paper PMC10163288
The list shows a part of the results.

B1: il10ra_site1_normal_mot_HHH_b2_08186_000000021_0001_43_56_H_._HHH_b1_07769_0001_0000300019_0000001_0 (protein)
chain: SSSSSNEEEIRELLEEVERLLEEGDPEEALQLLLRAVRLALELGNAELLQLIWRLLKEVASSSSS
B2: il10ra_site1_normal_mot_HHH_b2_00273_000000062_0001_23_39_H_._HHH_b1_04796_af2_0001_0000100002_0000001_1 (protein)
chain: SSSSSEEELKELLEEVEELIEKNDPERALRAIQEALRFAFRLSDEEALRRLWELAKLVAEASSSS
B3: il10ra_site1_normal_mot_HHH_b1_00999_000000080_0001_41_55_H_._HHH_b1_02031_af2_0001_0000400012_0000002_0 (protein)
chain: SSSSSDEEEKEVEELLEEAKRIPDPRERNEILLEALRIALHLGNEELLQLVWRVVKELGSSSSSS
B4: il10ra_site1_normal_mot_ems_3hM_3590_af2_000000053_0001_1_20_H_._851e9514b01d94382d7da6108aa17113_0001_0001_0000300010_0000001_0 (protein)
chain: SQERALENAVKALLQGNPLAERSLTWAVARELNIPPEEAQELIEEVRELAKTDPEKAEELLKEIL
B5: il10ra_site1_sap_17_mot_HHH_b1_06914_000000280_0001_1_18_H_._HHH_b2_02639_0001_0000100004_0000002_0_0001 (protein)
chain: SNEEELIFQIVIKAYRELLKAGVSHEEIAKANAELFEARRRGVSAEEVEEIAEEIVREAKEESSS
B6: il10ra_site1_sap_20_mot_9bc32e39fd96e64286323717145257bc_0001_000000045_0001_37_51_H_._HHH_b1_01025_af2_0001_0000400005_0000001_0_0001 (protein)
chain: SSSSDEEEEELRELLERVRELLERGDPRRAAEVTQELLRLIFQLRDHEALEELDRLFQKEASSSS
B7: il10ra_site1_sap_27_mot_HHH_b2_07873_af2_000000172_0001_1_19_H_._HHH_b2_04598_0001_0000100010_0000001_0_0001 (protein)
chain: SSSSSDEEEERVEELIEELRKIEDPERAARLVIEALRLIFRLSDAELLEELWRAFKEVINSSSSS
B8: il10ra_site1_sap_12_mot_8756ee2cf497b5429c717dfc0c0bcfd6_0001_000000186_0001_1_13_H_._HHH_b2_07923_0001_0000200016_0000002_0_0001_af2pred_0001 (protein)
chain: SSSSDVEEELEELLEEAKRIEDLHRASYVLSEAFALANRRRDPELEEEVRRAAKEIIEAGSSSSS
B9: il10ra_site1_sap_23_mot_HHH_b1_00982_af2_000000222_0001_1_20_H_._14d82ceff8a195a39001b8830cdb77ae_0001_1_0001_0000300007_0000001_0_0001 (protein)
chain: SSSSSDAAEEVYELSREAMELARKGNPEEAEKVLEEAEKLAEEANNRILQVVVRFALRALSSSSS
B10: il10ra_site1_sap_16_mot_HHH_b1_05357_000000034_0001_23_39_H_._HHH_eva_0376_0001_0000100015_0000001_0_0001 (protein)
chain: SLEEELEELLRELGVPPEWIRLLQLAFRVQRRQGTPPEQVLEALLYFLEAAGDPAREAVRELLER
B11: il10ra_site1_normal_mot_HHH_b1_06914_000000280_0001_1_18_H_._HHH_b1_02183_0001_0000200013_0000001_0 (protein)
chain: SSSSSDEAEEIYELLREALELMANGNPEEAEEVLEEARKLAEELNSFALLFAVRLLLRQLSSSSS
B12: il10ra_site1_sap_18_mot_HHH_b2_02949_000000044_0001_44_58_H_._f40d6d0cbf34e70120e1cbb54c31f594_0001_0001_0000300008_0000002_0_0001_af2pred_0001 (protein)
chain: SSSSSTIEEDVKSALRAAELLLKRGDPEKAEEAARIAELLARQANNEELLKKIEELLEELSSSSS
B13: il10ra_site1_sap_15_mot_HHH_b2_00943_af2_000000149_0001_1_17_H_._HHH_b2_00970_0001_0000100006_0000002_0_0001 (protein)
chain: SSSSSSDRTREIYELIREAFEIEDPEEAREVLERALELAEELGDFALRHAVEIALRALSSSSSSS
B14: il10ra_site1_normal_mot_39ab2cb694c8b9c1dc7e65c0d672c93e_0001_000000036_0001_53_65_H_._HHH_b1_05574_0001_0000300023_0000001_0 (protein)
chain: SSSSSEEERIEELIEEAKELLERGNPEEALELVLEALRLAYQNRNAELLQELWRLAKEIASSSSS
B15: il10ra_site1_sap_20_mot_HHH_b1_08133_000000195_0001_1_19_H_._HHH_b2_01759_af2_0001_0000200016_0000001_1_0001 (protein)
chain: SSSSSEEEELTRLLHEIMELYKKGDPRAEELVREAQELAEELGNQMAKWILELMLRALKRQSSSS
B16: il10ra_site1_normal_mot_HHH_b2_08186_000000021_0001_43_56_H_._HHH_b2_01697_0001_0000100002_0000002_0 (protein)
chain: SSSSSSEEEEVRREVEELLEEAKRVDREEAARLLMEAIRLAFEVSDPELLKLIWEVLRELSSSSS
B17: il10ra_site1_normal_mot_HHH_b1_01975_000000257_0001_1_17_H_._HHH_b1_01232_af2_0001_0000200004_0000001_1 (protein)
chain: SSSSDEHERIVRLMLRVARLFIEGNPEEAEKLLEEAEELAKELNDPELQRAIELLKRALKSSSSS
B18: il10ra_site1_normal_mot_7f9b3cf633cfd27bca007b62ade1be3b_0001_1_000000138_0001_17_32_H_._HHH_b2_03084_0001_0000200009_0000001_0 (protein)
chain: SSSSDLEEQIRAAEEFIRALLESGDPEAARRLLRALEDVVKNFNDEEAQRVVEELEEEINSSSSS
B19: il10ra_site1_sap_7_mot_HHH_b2_01447_af2_000000258_0001_1_20_H_._HHH_b1_00310_0001_0000100012_0000001_0_0001 (protein)
chain: SSSSSSDEEELLEAALRLLKQAPDPEIRKFMAWSIEFLAREVGDEEVEEELERLEEELSSSSSSS
B20: il10ra_site1_normal_mot_HHH_b1_00992_000000182_0001_23_40_H_._HHH_b1_07180_0001_0000300021_0000001_0_af2pred_0001 (protein)
chain: SSSSDDEERLELALKFIEWLIKQGDEEAAKYVIKAAREIAKKLGNEEILERLEELLERLNSSSSS
B21: il10ra_site1_sap_24_mot_HHH_b1_06174_af2_000000107_0001_40_57_H_._HHH_b1_02318_0001_0000200024_0000001_0_0001_af2pred_0001 (protein)
chain: SSSSSSDAEETVRIALRVAKLLTDPEDVRRALELAEKLARQANDPELEELVEEVEEELSSSSSSS
B22: il10ra_site1_normal_mot_HHH_b1_05254_000000006_0001_1_19_H_._HHH_b2_03913_0001_0000200009_0000001_0 (protein)
chain: SSSSDEAYELVRKAIEEALKLYRNGNPEEARELIEQVIEELRELGNVAAVWAAEHVLRVLRSSSS
B23: il10ra_site1_sap_17_mot_HHH_b1_02004_000000220_0001_1_19_H_._HHH_b2_05056_af2_0001_0000400040_0000002_0_0001 (protein)
chain: SSSSDETQEVFELFERAIELHSEGDHEEAERLLEEAERLAEELGNRLMRFQIEFAQRLLDSSSSS
B24: il10ra_site1_sap_12_mot_HHH_b2_00943_af2_000000149_0001_1_17_H_._HHH_b2_07075_0001_0000600045_0000001_0_0001 (protein)
chain: SSSSEEVIEKASRVAQEAIRLAIQRSDKETFEALWRLFEEIIREGDPELLEELERLLEELRSSSS

Each binder was assayed against il10ra, Q13651 (assay: yeast display titration).

Apparent Kd, inactive:
B1 no binding seen
B2 no binding seen
B3 no binding seen
B4 no binding seen
B5 no binding seen
B6 no binding seen
B7 no binding seen
B8 no binding seen
B9 no binding seen
B10 no binding seen
B11 no binding seen
B12 no binding seen
B13 no binding seen
B14 no binding seen
B15 no binding seen
B16 no binding seen
B17 no binding seen
B18 no binding seen
B19 no binding seen
B20 no binding seen
B21 no binding seen
B22 no binding seen
B23 no binding seen
B24 no binding seen

Two records drawn at random from those above:
Apparent Kd, inactive:
B24 no binding seen
B6 no binding seen
